Experimental data published in patent publication US4587045A, “Intermediates for preparing octapeptide vasopressin antagonists” (SmithKline Beckman Corporation, priority 1985, dated 1986).
Part of at least one peptide drawing is inferred or uncertain, most often the ends. *1 amine or outer side, *2 acyl side, *3 side chain or, on linkers, in order; H or OH if unused. Where a SMILES comes first, the peptide text is derived from it. Bridges are numbered along the chain shown (N, C = ends). [ ]: non-standard residue; d: D form. X1 = O=C(CC1(S[*:2])CCCCC1)[*:1]

By UniProt entry, the sequences of proteins in these tests, tags left out.
UniProt Q00788, whole entry: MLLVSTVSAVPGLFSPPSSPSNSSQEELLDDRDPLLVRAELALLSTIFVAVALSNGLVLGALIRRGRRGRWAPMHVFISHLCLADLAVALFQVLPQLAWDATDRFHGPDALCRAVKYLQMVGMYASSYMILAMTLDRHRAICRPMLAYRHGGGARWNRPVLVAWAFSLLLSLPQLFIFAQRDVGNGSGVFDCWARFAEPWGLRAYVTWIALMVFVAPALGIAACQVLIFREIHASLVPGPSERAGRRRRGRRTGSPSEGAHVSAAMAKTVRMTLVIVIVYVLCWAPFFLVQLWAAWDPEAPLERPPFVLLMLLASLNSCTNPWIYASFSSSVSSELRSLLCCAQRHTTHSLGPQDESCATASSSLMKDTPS

Columns and labels:
[1] = molecular target: T1, vasopressin receptors (V2 -receptors) (Rattus norvegicus, UniProt Q00788); assay: Hydropenic rat protocol (anti-ADH activity in vivo); conditions: estimated dose of peptide delivered ip which reduces Uosm from hydropenic levels to 300 mOsmoles/kg H2O
T1 construct: in vivo, in the hydropenic rat or the hydropenic monkey; from tissue; host or cells: whole animal (male hydropenic rat); renal receptors in situ
Description: (§1) Details of the in vitro protocols are in F. L. Stassen et al., J. of Pharm. Exp. Ther. 233, 50-54 (1982) but the calculations of cyclase activity and binding potential at the receptor site are as follows:
Food and water are removed from male rats approximately 18 hours prior to testing. Animals are housed 4 per metabolism cage. At 0 hour, the test compound is administered intraperitoneally to the test group and an equivalent volume of vehicle is administered to both control groups (fasted and non-fasted). Urine volume and osmolality are measured every hour for 4 hours. Test values are recorded as ml of urine excreted (cumulative), mEq/rat electrolyte excreted, mg/rat urea excreted, and osmolality in milli-Osmoles/kg H2 O. A […] is used to determine significance. ED300 is defined as the dose of compound (μg/kg) required to lower urine osmolality to 300 m-Osmoles/kg. ED500 is defined as the dose of compound (μg/kg) required to lower urine osmolality to 500 m-Osmoles/kg. The hydropenic monkey protocol is similar.

[2] = molecular target: vasopressin stimulated adenylate cyclase activity; assay: Assay of adenylate cyclase activity, kidney medullary membrane; type: biochemical; conditions: pig kidney medullary membrane, read-out: anti-ADH activity in vitro (Pig) Ki
Description: as §1
Test Procedure for Assay of Adenylate Cyclase Activity:
In each experiment the amount of ^32 P/cAMP formed in the absence of medullary membrane is determined (blank). The blank value is subtracted from all experimental data. The compound is tested for its effect on basal adenylate cyclase activity and/or on vasopressin stimulated activity. Each determination is carried out in triplicate. The Ka value is derived from a Lineweaver-Burke plot. Rel. Vmax =(Vmax drug/Vmax vasopressin)×100. Ki =I/[(Ka'/Ka)-1] where I is the concentration of the antagonist, and Ka' and Ka are the concentrations of vasopressin required to give half-maximal activity of adenylate cyclase in the presence and absence of antagonist, respectively.

[3] = tested on: vasopressin receptors (V2 -receptors); assay: Conscious hydropenic squirrel monkey test (anti-ADH activity); type: in vivo

SMILES | anti-ADH activity in vivo (Rat) ED300 [1] [mg/kg] | Ki [2] [nM] | ED300, dose required to decrease urine osmolality to 300M Osm/kg water [3] [nmol/kg]
CC(C)[C@@H]1NC(=O)[C@H](Cc2ccccc2)NC(=O)[C@@H](Cc2ccc(O)cc2)NC(=O)CC2(CCCCC2)SSC[C@@H](C(=O)N2CCC[C@H]2C(=O)N[C@@H](CCCNC(=N)N)C(N)=O)NC(=O)[C@H](CC(N)=O)NC1=O [Compound 2, [1-(β-mercapto-β,β-cyclopentamethylenepropionic acid)-2-D-tyrosine-4-valine-8-arginine-9-desglycine]vasopressin] ([dY]FVNCPR-NH2; linker N-5 via X1) | 0.063 | 27 | –
CC(C)[C@@H]1NC(=O)[C@H](Cc2ccccc2)NC(=O)[C@@H](Cc2ccc(O)cc2)NC(=O)CC2(CCCCC2)SSC[C@@H](C(=O)N2CCC[C@H]2C(=O)N[C@@H](CCCNC(=N)N)C(=O)O)NC(=O)[C@H](CC(N)=O)NC1=O [Compound 3, [1-(β-mercapto-β,β-cyclopentamethylenepropionic acid)-2-D-tyrosine-4-valine-8-arginine-9-desglycinamide]vasopressin] ([dY]FVNCPR-OH; linker N-5 via X1) | 0.156 | 160 | –
CCOc1ccc(C[C@H]2NC(=O)CC3(CCCCC3)SSC[C@@H](C(=O)N3CCC[C@H]3C(=O)N[C@@H](CCCNC(=N)N)C(N)=O)NC(=O)[C@H](CC(N)=O)NC(=O)[C@H](C(C)C)NC(=O)[C@H](Cc3ccccc3)NC2=O)cc1 [Compound 5, [1-(β-mercapto-β,β-cyclopentamethylenepropionicacid)-2-(O-ethyl-D-tyrosine)-4-valine-8-arginine-9-desglycine]vasopressin] ([dY](Et)FVNCPR-NH2; linker N-5 via X1) | 0.0058 | 3 | 8.6
